This is an account of results in PubChem BioAssay AID493014 (National Center for Advancing Translational Sciences (NCATS), 2011).

The other results are listed elsewhere or left out. Shown are side measurements of this screen, not its main read-out; they come without a call. Most of these compounds were active or inconclusive in the main read-out, so they are no random draw. Potencies come from curve fits of mixed quality, noted in brackets.

The experiment in a line: qHTS Assay to Find Inhibitors of Chronic Active B-Cell Receptor Signaling. Particulars: ABC-DLBCL IkBa-CBG/CBR reporter, luminescence ratio (green luciferase fused to IkBa over red control in TMD8 lymphoma cells), 4 h. A digest of the protocol:
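Concentration-response series (up to 46 uM) were applied to TMD8 dual-reporter cells for 4 h at 37C with doxycycline. Green/red ratio, after filter-overlap correction, defined %Activity; red signal alone was normalised to basal cells and zero luminescence.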
In general terms: qHTS replaces the single test concentration by a dilution series.

Setting [1] is: measured here: CBR red luminescence, cell number.
The mark [2] stands for this setting: measured here: IkBa-CBG green luminescence.

Take `Cc1ccc(-c2nnc(SCC(C)C)n2C)cc1`: under setting [1], the AC50 was 2.82 µM [rising, partial curve, poor fit].

Consider `Nc1ccc2c(c1)OCCOCCOCCOCCOCCO2`, for which the AC50 under setting [1] is 5.62 µM [falling, single point].

Turning to `COc1ccc(OC)c(/C=N/NC(=O)c2cc3c(OC)cc(OC)cc3[nH]2)c1`, the AC50 under setting [1] was 17.8 µM [falling, partial curve, poor fit]. Still for that read-out and setting: then `O=C(COc1cccnc1[N+](=O)[O-])c1c[nH]c2ccccc12`, with 11.2 µM [falling, partial curve, poor fit]; and `C/C(=N\NC(=O)c1ccc(F)cc1)c1cccc(NC(=O)c2ccco2)c1`, with 35.5 µM [falling, single point]. Turning to `O=C(Nc1ccc(N2CCC(c3ccccc3)C2)c(C(=O)O)c1)c1ccc(Cl)cc1` (stereo unspecified), the AC50 is 6.31 µM [rising, full curve, poor fit] under setting [1] and 35.5 µM [falling, single point] under setting [2].

In the case of `c1ccc(N2CCN(c3cnc4ccccc4n3)CC2)cc1`, under setting [1], the AC50 is 16.4 µM [falling, single point].

In the case of `CCOc1ccc(NC(=O)N(c2ccccc2)c2ccccc2)cc1`, the AC50 under setting [1] was 12.6 µM [rising, single point]. The same measure, in the same setting: then `Cc1cccc(/C=C(\C#N)C(=O)Nc2ccccn2)c1`, with 3.55 µM [rising, single point]; and `CC1CCC(NC(=O)CC2Oc3ccccc3NC2=O)CC1` (stereo unspecified), with 23.1 µM [falling, partial curve, poor fit]; and `CCC(=O)Oc1ccc(C/C(=N\O)c2ccc(O)cc2O)o1`, with 16.4 µM [falling, single point]. Same read-out and setting: then `CCn1c(=O)c(C(=O)Nc2ccccc2F)c(O)c2ccccc21`, with 0.501 µM [falling, full curve]; and `Cc1nnc2sc(SCC(=O)N3CCC(C)CC3)nn2c1=O`, with 12.6 µM [falling, partial curve, poor fit]. Consider `Cc1ccncc1C(N)=O`, for which the AC50 under setting [1] is 0.891 µM [rising, full curve, poor fit]. For `Cc1cc(C)n(-c2ccc(C(=O)NC(C)C)cc2)n1`, the AC50 under setting [1] was 6.31 µM [rising, partial curve]. Regarding `COCCCNC(=O)CCc1nc(-c2ccccc2)no1`, under setting [1], the AC50 is 29.1 µM [rising, single point].

For `COCCn1c(COc2ccc(OC)cc2)nc2ccccc21`, the AC50 under setting [1] is 1.3 µM [rising, full curve, poor fit]. With `O=C(Nc1cnn(Cc2ccc(Cl)c(Cl)c2)c1)c1nc2ncccn2n1`, the AC50 under setting [1] was 8.91 µM [falling, partial curve, poor fit]. Take `O=NNc1nc2ccccc2n1Cc1ccccc1`: the AC50 under setting [1] was 10 µM [falling, partial curve, poor fit].

On to `CCOc1ccc(NC(=S)N(CCc2c(C)[nH]c3ccccc23)Cc2cccnc2)cc1`, for which the AC50 under setting [2] was 18.4 µM [falling, partial curve, poor fit]. For the molecule `CCc1ccc(Nc2n[n+](-c3ccccc3)c(-c3ccc(OCc4ccccc4)cc3)s2)cc1`, the AC50 under setting [1] was 35.5 µM [falling, single point]. Still for that read-out and setting: then `CSc1ncccc1C(=O)OCC(=O)NCCc1ccccc1`, with 7.31 µM [rising, partial curve, poor fit]. As for `CC(Sc1nc2ccc(Br)cc2[nH]1)C(=O)O` (stereo unspecified), under setting [1], the AC50 is 10.3 µM [rising, single point]. Same read-out and setting: then `O=C(NCCCCCCNC(=O)c1ccc(Br)s1)c1ccc(Br)s1`, with 20.6 µM [rising, partial curve]. Still for that read-out and setting: then `CS(=O)(=O)c1ccc2nc(NC(=O)CCNC(=O)c3ccc(Cl)cc3)sc2c1`, with 2.91 µM [rising, full curve]; and `O=S(=O)(c1ccc2c(c1)OCCO2)N1CCN(S(=O)(=O)c2ccc3c(c2)OCCO3)CC1`, with 32.6 µM [falling, single point]. As for `CCN1CCN(c2ccc(NC(=O)c3cc4ccccc4cc3OC)cc2C)CC1`, the AC50 under setting [1] is 32.6 µM [falling, single point].

Turning to `COCCNCc1ccccc1[N+](=O)[O-]`, under setting [1], the AC50 is 0.00517 µM [falling, full curve, poor fit].

In the case of `O=C(O)C1CCN(C(=O)c2ccc3c(c2)OCO3)CC1`, the concentration at half-maximal activity (AC50) under setting [1] is 35.5 µM [rising, single point]. Regarding `CC(C(=O)Nc1ccc2c(c1)OCO2)c1ccc([N+](=O)[O-])cc1` (stereo unspecified), the AC50 under setting [1] was 0.251 µM [falling, full curve, poor fit]. Same read-out and setting: then `O=C(NNc1nc(-c2ccccc2)cs1)c1ccc(F)cc1`, with 20 µM [falling, single point]; and `CN1C(=O)[C@H](Cc2ccc([N+](=O)[O-])cc2)NC1=S`, with 0.708 µM [falling, full curve, poor fit].

As for `CCn1c(CSc2nc(C)cc(C)n2)nnc1SCC(=O)Nc1cccc2ccccc12`, the AC50 under setting [1] is 29.1 µM [falling, single point].

Regarding `O=C(CN(c1ccccc1)S(=O)(=O)c1ccccc1[N+](=O)[O-])Nc1ccccc1C(=O)N1CCOCC1`, under setting [1], the AC50 is 35.5 µM [falling, partial curve, poor fit].

In the case of `Cc1ccc(NC(=O)c2cc(S(=O)(=O)N3CCc4ccccc43)cn2C)cc1C`, the AC50 under setting [1] was 0.282 µM [falling, partial curve, poor fit]. Still for that read-out and setting: then `Nc1nc(N)nc(-c2cc([N+](=O)[O-])ccc2O)n1`, with 2.91 µM [falling, full curve]. For the molecule `O=C(O)c1ccc(N/N=C/c2ccc(OC(=O)c3cccc(Cl)c3)cc2)cc1`, the AC50 under setting [1] was 0.0891 µM [falling, full curve, poor fit]. On the same count and under the same terms, then `O=C(O)CC1Sc2ccccc2NC1=O` (stereo unspecified), with 35.5 µM [rising, single point]; and `Cc1sc2nc(CN3CCCCC3)nc(Cl)c2c1C`, with 9.2 µM [falling, partial curve, poor fit]; and `Cc1ccc(C)c(SCc2nc3sc(C(=O)O)c(C)c3c(=O)[nH]2)c1`, with 0.631 µM [falling, full curve]. On the same count and under the same terms, then `CCCN1C(=O)c2ccccc2NC1c1ccc(Br)cc1` (stereo unspecified), with 12.6 µM [falling, single point]. Take `CCOC(=O)C1CCN(C(=O)c2ccc(CNS(=O)(=O)c3ccc(C)cc3)cc2)CC1`: under setting [1], the AC50 is 35.5 µM [rising, partial curve, poor fit].

With `N#Cc1c(NC(=O)CSc2nc(-c3ccco3)cc(C(F)(F)F)n2)sc2c1CCCC2`, the AC50 under setting [1] is 0.291 µM [rising, full curve, poor fit]. Same read-out and setting: then `COC(=O)CSc1ncccc1-c1nc2ccccc2[nH]1`, with 0.0146 µM [falling, full curve, poor fit]. On the same count and under the same terms, then `COc1ccc(/C=C(/NC(=O)c2ccccc2)C(=O)N/N=C/c2sccc2C)cc1`, with 25.9 µM [rising, single point].

Turning to `COc1ccc(C)cc1S(=O)(=O)N(C)CC(=O)Nc1ccc2c(c1)OCCO2`, the AC50 under setting [1] was 29.1 µM [falling, single point]. `CC(Oc1cccc(Cl)c1)C(=O)Nc1ccncc1` (stereo unspecified): the half-maximal activity concentration (AC50) under setting [1] is 5.01 µM [falling, single point].

As for `CCCC1Cc2c(sc(N)c2C#N)CO1` (stereo unspecified), the AC50 under setting [1] was 12.6 µM [rising, partial curve, poor fit]. Still for that read-out and setting: then `O=C(/C=C1\NC2(CCCC2)Cc2ccccc21)C(=O)N/N=C/c1ccccc1O`, with 9.2 µM [rising, partial curve, poor fit]. Same read-out and setting: then `CCN(c1ccccc1)S(=O)(=O)c1ccc(C(=O)Nc2ccccn2)cc1`, with 29.1 µM [falling, partial curve, poor fit]. Same read-out and setting: then `Cn1ncc2c(NNC(=O)c3ccccc3Cl)ncnc21`, with 29.1 µM [falling, single point]; and `COc1ccc2nc(NC(=O)Nc3ccccc3OC)sc2c1`, with 0.562 µM [falling, full curve, poor fit]; and `CN(C)/C=C1/Sc2ccccc2C1=O`, with 10 µM [falling, partial curve, poor fit].

`COc1cccc2c1C(=O)c1c(O)c3c(c(O)c1C2=O)C[C@](O)(C(C)=O)C[C@H]3O[C@@H]1C[C@@H](N)[C@@H](O)[C@@H](C)O1`: the AC50 under setting [1] was 4.61 µM [falling, full curve]. Same read-out and setting: then `CCOC(=O)c1cnc2ccc(C(=O)OC)cc2c1NCc1ccco1`, with 23.1 µM [falling, partial curve, poor fit]; and `CCn1c(=N)c(S(=O)(=O)c2ccc(Cl)cc2)cc2c(=O)n3ccccc3nc21`, with 12.6 µM [rising, partial curve, poor fit]. The same measure, in the same setting: then `O=C(N/N=C/c1ccsc1)c1cc2ccccc2o1`, with 8.91 µM [falling, partial curve, poor fit]; and `CCCc1ccc(C(=O)NNc2ccccc2F)cc1`, with 22.4 µM [falling, partial curve, poor fit].

On to `COc1ccc(NC(=O)/C(C#N)=C/c2ccc(Sc3nncn3C)c([N+](=O)[O-])c2)cc1`, for which the AC50 was 35.5 µM [falling, single point] under setting [1] and 22.4 µM [falling, single point] under setting [2]. Turning to `COc1ccc(-c2[nH]ncc2N=Nc2ccccc2)cc1`, the AC50 under setting [1] was 6.31 µM [rising, partial curve, poor fit]. The same measure, in the same setting: then `COCCN1C(=O)N(c2ccc(Cl)cc2)C(=O)C1CC(=O)Nc1cc(OC)cc(OC)c1` (stereo unspecified), with 12.6 µM [rising, single point]; and `N#CC1=C(N)OC2=C(CCc3ccccc32)C1c1ccccc1Cl` (stereo unspecified), with 8.2 µM [falling, partial curve, poor fit]; and `CCOC(=O)C(Cc1ccc(NC(=O)/C(=C/c2ccc(OC(C)=O)cc2)NC(C)=O)cc1)N1C(=O)c2ccccc2C1=O` (stereo unspecified), with 10 µM [falling, partial curve, poor fit]. On the same count and under the same terms, then `Cc1nn(CC(C)C)c(Cl)c1C(=O)N(C)CC(=O)Nc1c(Cl)cccc1Cl`, with 0.112 µM [rising, full curve, poor fit].

As usually defined, the AC50 is the concentration at which the activity in the assay is half-maximal.
